{"sequences": {"note": "The chains behind the UniProt entries cited, without tags or fusion partners.", "UniProt P10275": "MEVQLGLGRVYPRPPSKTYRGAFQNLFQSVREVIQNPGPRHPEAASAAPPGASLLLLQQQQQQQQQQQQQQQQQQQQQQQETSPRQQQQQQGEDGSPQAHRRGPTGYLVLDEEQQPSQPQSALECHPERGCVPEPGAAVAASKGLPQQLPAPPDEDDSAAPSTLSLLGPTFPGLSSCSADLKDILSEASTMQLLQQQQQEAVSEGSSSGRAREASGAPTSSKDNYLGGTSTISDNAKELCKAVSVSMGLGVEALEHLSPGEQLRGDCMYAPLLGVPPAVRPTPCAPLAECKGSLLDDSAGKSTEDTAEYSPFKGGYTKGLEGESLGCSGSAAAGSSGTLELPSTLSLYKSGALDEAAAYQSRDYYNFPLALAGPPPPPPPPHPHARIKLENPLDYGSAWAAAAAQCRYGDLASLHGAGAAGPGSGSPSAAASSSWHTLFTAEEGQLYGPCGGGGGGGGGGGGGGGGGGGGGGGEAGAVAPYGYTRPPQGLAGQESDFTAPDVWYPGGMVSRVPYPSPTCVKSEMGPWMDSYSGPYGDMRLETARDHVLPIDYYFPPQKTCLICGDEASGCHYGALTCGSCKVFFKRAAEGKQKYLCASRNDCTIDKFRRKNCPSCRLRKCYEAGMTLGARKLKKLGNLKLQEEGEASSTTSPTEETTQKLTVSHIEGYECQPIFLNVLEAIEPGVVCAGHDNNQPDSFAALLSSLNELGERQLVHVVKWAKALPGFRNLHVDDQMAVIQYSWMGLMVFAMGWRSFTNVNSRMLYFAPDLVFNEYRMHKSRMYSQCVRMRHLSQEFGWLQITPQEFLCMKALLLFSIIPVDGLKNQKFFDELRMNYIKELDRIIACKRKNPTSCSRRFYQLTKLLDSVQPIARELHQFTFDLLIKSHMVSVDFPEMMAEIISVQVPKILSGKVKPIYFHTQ"}, "source": "paper PMC11579034", "target": "heat shock protein 90 alpha family class A member 1 (HSP90AA1), endogenous in 22Rv1 and LNCaP cells (human (endogenous in 22Rv1 and LNCaP)) (UniProt P07900)", "assay": "co-IP; lysates of control or circRNF19A-490aa-overexpressing 22Rv1 and LNCaP cells immunoprecipitated with control IgG or AR or HSP90AA1 antibodies", "note": "No constants are given. Whether binding was seen depends on the method and setting. In cells and extracts the contact can be indirect. Some results given as binding are weak or reduced against the parent protein; the word gives no strength.", "data": [{"substance": "androgen receptor (AR), endogenous in 22Rv1 and LNCaP cells (from UniProt P10275 1-920)", "values": [{"measurement": "binding", "value": "binds"}]}]}
